Data taken from PMC10511046.
No constants are given. Whether binding was seen depends on the method and setting. Binding seen in cells or lysates may run through a third protein. Binding can be weak; no strength is given.

molecular target: T1, Full-length Igsf9b (expressed in HEK293) (UniProt E9PZ19); assay: co-IP; HEK293 cells transiently expressing GFP-Prickle2 constructs and Igsf9b, lysed in RIPA buffer; Igsf9b precipitated with anti-Igsf9b antibody, immunoblotting with anti-GFP antibody
T1 sequence: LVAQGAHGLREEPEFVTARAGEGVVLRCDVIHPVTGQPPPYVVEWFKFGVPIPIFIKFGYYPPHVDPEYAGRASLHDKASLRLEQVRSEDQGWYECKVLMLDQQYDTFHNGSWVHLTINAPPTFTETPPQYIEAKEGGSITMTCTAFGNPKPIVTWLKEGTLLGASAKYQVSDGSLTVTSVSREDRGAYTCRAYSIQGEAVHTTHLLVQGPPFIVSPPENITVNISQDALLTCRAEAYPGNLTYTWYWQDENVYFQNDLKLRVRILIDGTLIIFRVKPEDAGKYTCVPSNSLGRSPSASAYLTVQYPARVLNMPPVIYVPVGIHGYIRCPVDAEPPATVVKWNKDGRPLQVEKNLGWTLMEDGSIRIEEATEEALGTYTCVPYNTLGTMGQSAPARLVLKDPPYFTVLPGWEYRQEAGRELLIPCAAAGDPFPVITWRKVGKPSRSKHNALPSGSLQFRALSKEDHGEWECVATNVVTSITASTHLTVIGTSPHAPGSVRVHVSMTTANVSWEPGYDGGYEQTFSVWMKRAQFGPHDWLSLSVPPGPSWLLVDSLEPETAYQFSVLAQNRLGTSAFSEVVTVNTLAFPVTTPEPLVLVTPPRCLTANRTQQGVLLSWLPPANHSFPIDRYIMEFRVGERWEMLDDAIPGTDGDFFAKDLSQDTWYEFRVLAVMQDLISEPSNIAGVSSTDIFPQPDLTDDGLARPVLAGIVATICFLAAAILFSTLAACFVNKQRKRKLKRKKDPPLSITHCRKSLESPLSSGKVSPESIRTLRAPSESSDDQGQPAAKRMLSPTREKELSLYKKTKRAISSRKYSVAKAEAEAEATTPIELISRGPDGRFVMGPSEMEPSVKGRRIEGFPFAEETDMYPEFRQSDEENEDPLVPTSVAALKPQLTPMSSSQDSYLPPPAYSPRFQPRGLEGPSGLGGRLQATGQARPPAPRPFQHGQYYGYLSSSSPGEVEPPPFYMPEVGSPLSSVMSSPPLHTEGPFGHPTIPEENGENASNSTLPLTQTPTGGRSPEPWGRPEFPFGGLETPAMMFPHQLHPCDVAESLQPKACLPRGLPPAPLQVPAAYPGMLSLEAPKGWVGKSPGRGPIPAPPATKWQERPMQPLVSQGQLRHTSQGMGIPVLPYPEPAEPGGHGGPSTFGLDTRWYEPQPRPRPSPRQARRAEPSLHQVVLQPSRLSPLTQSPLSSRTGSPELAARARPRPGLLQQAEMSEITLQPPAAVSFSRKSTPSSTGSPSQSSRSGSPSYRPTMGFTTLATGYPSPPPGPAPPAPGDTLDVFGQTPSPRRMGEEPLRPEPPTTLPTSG

Row | Substance | binding
1 | GFP-tagged Prickle2 mutant lacking the third LIM domain (PK2-del325_370) (mouse) | no binding
2 | GFP-tagged Prickle2 fragment PK2-C1 (aa 600-886) (mouse) (domain or fragment) | no binding
3 | GFP-tagged full-length Prickle2 (mouse) | binds

Results, then the substance that gave them:

Row | binding | Substance
4 | binds | GFP-tagged Prickle2 fragment PK2-N2 (aa 1-599) (mouse) (domain or fragment)
5 | no binding | GFP-tagged Prickle2 fragment PK2-N1 (aa 1-324) (mouse) (domain or fragment)
